The results in this text go back to paper PMC5668370.

The target of assay [1] is T1, RNF8 (endogenous, rat cerebellum) (rat (endogenous in cerebellum)) (UniProt Q4KLN8).
T1 sequence: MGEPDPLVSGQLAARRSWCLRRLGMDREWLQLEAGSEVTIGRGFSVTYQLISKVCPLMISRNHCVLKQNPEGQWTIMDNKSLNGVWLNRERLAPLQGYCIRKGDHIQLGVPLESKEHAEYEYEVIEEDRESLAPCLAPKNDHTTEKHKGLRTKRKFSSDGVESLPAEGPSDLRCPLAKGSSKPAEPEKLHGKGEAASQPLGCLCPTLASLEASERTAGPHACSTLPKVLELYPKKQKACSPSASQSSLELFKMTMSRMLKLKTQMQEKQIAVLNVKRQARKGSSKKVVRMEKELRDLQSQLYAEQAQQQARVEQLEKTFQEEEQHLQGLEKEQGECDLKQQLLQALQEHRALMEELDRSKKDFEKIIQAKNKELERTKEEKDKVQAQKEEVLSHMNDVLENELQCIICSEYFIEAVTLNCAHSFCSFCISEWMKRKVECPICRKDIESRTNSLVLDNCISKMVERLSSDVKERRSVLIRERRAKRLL
Nature of the assay: co-IP; RNF8 antibody on protein G beads, overnight at 4 °C with the cytoplasmic fraction of rat cerebellum lysate; wash 50 mM Tris-HCl pH8.0, 150 mM NaCl, 0.5% Triton X-100; immunoblotting.

For assay [2], the target named is Flag-NEURL4 (rat). Put plainly: co-IP; 293T cells transfected with HA-HERC2 P6, Flag-NEURL4, GFP-RNF8 WT or GFP-RNF8 R42A; HA antibody with protein G beads or Flag M2 agarose, 2 h; 50 mM Tris-HCl pH8.0, 150 mM NaCl, 1% Triton X-100; immunoblotting. A general note: A western blot detects proteins with antibodies after separation by electrophoresis.

No constants are given. Whether binding was seen depends on the method and setting. In cells and extracts the contact can be indirect. Binding calls can cover weak binding; strength is not graded here. For some assays here: Where a sequence is shown, tags or fusion partners need not be part of it.

HERC2 (endogenous, rat cerebellum): the binding result in assay [1] is on record as “binds”.

B1: GFP-RNF8 WT (protein, UniProt Q4KLN8 1-487)
chain: MGEPDPLVSGQLAARRSWCLRRLGMDREWLQLEAGSEVTIGRGFSVTYQLISKVCPLMISRNHCVLKQNPEGQWTIMDNKSLNGVWLNRERLAPLQGYCIRKGDHIQLGVPLESKEHAEYEYEVIEEDRESLAPCLAPKNDHTTEKHKGLRTKRKFSSDGVESLPAEGPSDLRCPLAKGSSKPAEPEKLHGKGEAASQPLGCLCPTLASLEASERTAGPHACSTLPKVLELYPKKQKACSPSASQSSLELFKMTMSRMLKLKTQMQEKQIAVLNVKRQARKGSSKKVVRMEKELRDLQSQLYAEQAQQQARVEQLEKTFQEEEQHLQGLEKEQGECDLKQQLLQALQEHRALMEELDRSKKDFEKIIQAKNKELERTKEEKDKVQAQKEEVLSHMNDVLENELQCIICSEYFIEAVTLNCAHSFCSFCISEWMKRKVECPICRKDIESRTNSLVLDNCISKMVERLSSDVKERRSVLIRERRAKRLL
As to B1, the binding entry in assay [2] is on record as “binds”.
